According to US11155576B2 (BRANDEIS UNIVERSITY, priority 2014, dated 2021):

What was measured:
[1] = system: HeLa cells; assay: SEM of freeze-dried HeLa cells; type: cell-based, human
[2] = general procedure: Fmoc solid-phase peptide synthesis; settings: whole synthesis

Compound	Cell surface appearance by SEM ([1]; 280 μM)	Cell surface appearance by SEM ([1]; 560 μM)	isolated yield [2]
O=C(Cc1ccc2ccccc2c1)N[C@H](Cc1ccccc1)C(=O)N[C@H](Cc1ccccc1)C(=O)N[C@H](Cc1ccc(OP(=O)(O)O)cc1)C(=O)O [D-2a, Nap-D-Phe-D-Phe-D-Tyr(PO3H2)]	fiber-like structures attached closely to the cell surface	covered in porous structures (i.e., nanonets)	
NBD-D-Nal-D-Phe-D-Phe-D-pTyr			60%
